Assay results: paper PMC9456370

Amino acid sequences for entries named in this document (tags omitted). Residues count along the entry.
UniProt P0AAI5: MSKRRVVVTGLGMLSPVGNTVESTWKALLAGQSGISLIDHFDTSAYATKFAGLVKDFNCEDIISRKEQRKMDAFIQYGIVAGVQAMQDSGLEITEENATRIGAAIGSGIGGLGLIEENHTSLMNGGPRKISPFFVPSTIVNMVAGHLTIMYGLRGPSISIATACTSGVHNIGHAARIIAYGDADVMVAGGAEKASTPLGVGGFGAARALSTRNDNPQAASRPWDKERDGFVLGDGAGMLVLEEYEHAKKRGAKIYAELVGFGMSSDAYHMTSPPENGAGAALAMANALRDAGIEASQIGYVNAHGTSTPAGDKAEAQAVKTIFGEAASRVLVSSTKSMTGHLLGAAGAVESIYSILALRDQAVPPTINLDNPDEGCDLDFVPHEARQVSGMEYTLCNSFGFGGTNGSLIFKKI
UniProt P0AAI3: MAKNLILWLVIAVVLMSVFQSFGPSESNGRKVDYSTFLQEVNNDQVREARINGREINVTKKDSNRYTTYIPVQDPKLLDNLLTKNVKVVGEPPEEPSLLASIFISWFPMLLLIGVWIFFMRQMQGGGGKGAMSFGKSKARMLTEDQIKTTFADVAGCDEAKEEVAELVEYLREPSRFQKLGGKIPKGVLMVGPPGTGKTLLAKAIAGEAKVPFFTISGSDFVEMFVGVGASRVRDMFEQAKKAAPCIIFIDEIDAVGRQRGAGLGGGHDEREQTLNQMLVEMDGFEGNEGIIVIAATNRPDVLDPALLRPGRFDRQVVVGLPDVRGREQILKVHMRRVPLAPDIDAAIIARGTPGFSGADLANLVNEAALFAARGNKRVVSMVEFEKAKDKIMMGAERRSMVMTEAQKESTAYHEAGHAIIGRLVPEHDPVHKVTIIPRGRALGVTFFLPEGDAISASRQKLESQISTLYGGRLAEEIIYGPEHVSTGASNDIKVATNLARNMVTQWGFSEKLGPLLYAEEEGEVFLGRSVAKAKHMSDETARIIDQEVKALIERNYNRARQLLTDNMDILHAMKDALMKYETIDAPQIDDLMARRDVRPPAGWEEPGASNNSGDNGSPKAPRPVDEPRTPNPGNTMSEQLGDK
UniProt P63224: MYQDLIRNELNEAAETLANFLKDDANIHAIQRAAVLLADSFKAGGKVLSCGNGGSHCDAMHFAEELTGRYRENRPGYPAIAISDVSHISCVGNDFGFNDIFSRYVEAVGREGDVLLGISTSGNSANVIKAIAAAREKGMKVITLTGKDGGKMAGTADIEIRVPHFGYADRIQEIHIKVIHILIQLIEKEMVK
UniProt P31554, residues 25-784: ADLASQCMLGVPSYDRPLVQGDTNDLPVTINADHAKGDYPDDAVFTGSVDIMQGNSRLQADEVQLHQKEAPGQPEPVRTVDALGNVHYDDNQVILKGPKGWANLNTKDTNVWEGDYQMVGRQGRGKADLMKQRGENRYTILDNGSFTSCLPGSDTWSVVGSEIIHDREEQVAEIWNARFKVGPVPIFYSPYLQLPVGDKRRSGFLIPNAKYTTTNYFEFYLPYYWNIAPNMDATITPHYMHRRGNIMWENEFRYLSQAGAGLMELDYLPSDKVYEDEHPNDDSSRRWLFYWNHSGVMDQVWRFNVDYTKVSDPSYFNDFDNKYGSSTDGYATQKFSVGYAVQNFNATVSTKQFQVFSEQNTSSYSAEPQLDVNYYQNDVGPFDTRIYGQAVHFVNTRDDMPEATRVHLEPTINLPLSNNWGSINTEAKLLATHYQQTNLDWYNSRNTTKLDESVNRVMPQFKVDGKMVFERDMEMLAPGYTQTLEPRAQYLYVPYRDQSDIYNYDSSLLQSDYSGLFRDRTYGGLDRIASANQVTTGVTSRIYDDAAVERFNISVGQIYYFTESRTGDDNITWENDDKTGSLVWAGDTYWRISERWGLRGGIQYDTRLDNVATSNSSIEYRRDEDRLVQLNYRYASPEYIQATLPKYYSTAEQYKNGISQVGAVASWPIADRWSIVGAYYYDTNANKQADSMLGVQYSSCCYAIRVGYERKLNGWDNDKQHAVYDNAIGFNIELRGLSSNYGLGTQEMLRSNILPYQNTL
UniProt P24205: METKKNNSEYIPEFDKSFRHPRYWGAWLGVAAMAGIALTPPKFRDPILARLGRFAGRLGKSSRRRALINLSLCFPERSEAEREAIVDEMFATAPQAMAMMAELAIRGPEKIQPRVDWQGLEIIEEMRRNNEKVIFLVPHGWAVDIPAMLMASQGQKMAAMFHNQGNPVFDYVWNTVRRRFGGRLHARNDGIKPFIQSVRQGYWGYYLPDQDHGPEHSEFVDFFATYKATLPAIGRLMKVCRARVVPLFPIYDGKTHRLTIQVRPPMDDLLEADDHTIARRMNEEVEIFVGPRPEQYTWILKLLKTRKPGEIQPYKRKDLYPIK

Each substance was assayed against T1, His6-tagged LapD protein (E. coli K-12) (UniProt P0ADW3) (assay: affinity purification with mass spectrometry; His6-LapD (pCA24N JW5539 in BW25113) from IM fraction solubilized with 2% octyl-β-D-glucoside, on nickel-nitrilotriacetic acid beads, eluted with 250 mM and 100 mM imidazole; co-eluting proteins resolved on 12% SDS-PAGE (Coomassie) and identified by MALDI-TOF).
T1 sequence: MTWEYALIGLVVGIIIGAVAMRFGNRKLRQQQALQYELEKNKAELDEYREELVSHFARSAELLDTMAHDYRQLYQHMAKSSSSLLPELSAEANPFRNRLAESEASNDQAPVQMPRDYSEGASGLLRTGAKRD

Question: Which binding does the source give for “FabF (from UniProt P0AAI5 1-413) (enzyme)” here?
Answer: binds

Question: Which binding does the source give for “FtsH (from UniProt P0AAI3 1-644) (enzyme)” here?
Answer: binds

Question: “GmhA (from UniProt P63224 1-192) (enzyme)” was tested. Which binding did it give?
Answer: binds

Question: For LptD (from UniProt P31554 25-784), which binding is on record?
Answer: binds

Question: “LpxM (from UniProt P24205 1-323) (enzyme)” was tested. Which binding did it give?
Answer: binds

No constants are given. Whether binding was seen depends on the method and setting. In cells and extracts the contact can be indirect. Here binding means that the protein was enriched with, or labelled near, the bait; the list need not be complete. Sequences can lack the tags named with a protein.
